For 67 sequences, z-score results are on record in PubChem BioAssay AID1347423 (Functional Genomics Laboratory (NCATS/FGL), 2020).

In all, about 52,000 sequences went through this assay and about 210 (0.4%) were called active.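 How the source made its calls: active means gene whose silencing raises cell survival under the drug, median off-target-corrected z-score across its silencing RNAs 2 or more; inactive means the rest.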 This is one part of the list.

The nature of this assay: Resistance to Poly (ADP-Ribose) Polymerase inhibitor: Gene Identification via Genome-wide siRNA Screen. As to conditions: mouse BRCA2 R2336H ES cells, olaparib, CellTiter-Glo viability; active compounds read high. The gist of the method:
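Genome-wide siRNA screen (3 siRNAs/gene, 20 nM) in mouse ES cells carrying hypomorphic BRCA2 R2336H; olaparib 500 nM added 48 h post-transfection, CellTiter-Glo viability 72 h later. Normalized to plate-median negative control; MAD z-scores, gene median, seed-adjusted.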
Background: ATP-based viability assays read luminescence as a measure of living cells.
In the case of CCUUUGGUAGAGACCUUUUTT against Statip1, the z-score was inactive: -1.7.
As for GCAGUCCUCAGUCGAGAAATT against Aqp9, the z-score was inactive: 0.171.
In the case of GGCAAGUCUUUAAAAGUCCTT against Xrcc2 it was inactive: -0.442; in that of CCAUACUGUUAUAGUGGUGTT against Olfr25, inactive: -0.325.
In the case of GGAAAAAGUGCAUUUAUGUTT against Fnbp3, the z-score was inactive: -2.43.
In the case of GAGAAGAAAAAAUGCAGUGTT against Olfr825 it was inactive: -0.245; in that of GGAUUUCCCUAAAAAACACTT against Tbl2, inactive: 0.283; in that of UGGGAAGGUGCUCACUGAGTT against BC048355, inactive: -1.49.
For CGCACAAGAGUGGUUCGAATT against Sytl1 the value was inactive: 1.14; for GGUGCAUUUAAAAAAGCUGTT against Olfr1448, inactive: -0.223; for GCAGCCUUUGUACCAUUAUTT against LOC434881, inactive: -1.65.
In the case of CCAGUUAUGACAAUUAAGATT against Epha3 it was inactive: 0.401; in that of GGAACCUAUCCAAGAAGUATT against Ckap2, inactive: -0.379.
For GCCAAAAGAAAUUUGGGACTT against Txndc9, the z-score was inactive: 0.167.
For GGAGAAAAAUCAUCUUAUCTT against Tead1 the value was inactive: -0.454; for CCAAGUCUCGUGUGAAAGATT against Nefh, inactive: 0.0612; for “GCCAUUACAAGUGAUAUAATT against 1810074P20Rik”, inactive: -1.68.
Turning to “GCUGGAUGGCACUUAUGACTT against 2210413P12Rik”, the z-score was inactive: -0.576.
In the case of GGCUAUGAAACAGUACAAUTT against Thoc4 it was inactive: -3.03.
Turning to GCCAAGCUUGUCCAUUGAUTT against Akap9, the z-score is inactive: -2.76.
Take GGUACUAAUGGAUUACCCATT against BC031181: the z-score is inactive: -1.67.
As to “GCUUAAAUAGCACAGAUUUTT against 2600014M03Rik”, the z-score is inactive: 1.04.
With “GGAAUUGAUCCCAUUUUAATT against 1810038H16Rik”, the z-score is inactive: 1.83.
For “GGAUAUAGGUGUGAUCUAGTT against 1810057P16Rik” the value was inactive: 0.208; for GGUCCAAGAAGGAUUACCUTT against Uox, inactive: 0.144.
For the sequence GGAUCCCACACUUUUCUGATT against Rxra, the z-score was inactive: 1.02.
In the case of CCGACUCCCAUGCAUCUAUTT against Mccc2 it was inactive: -0.122; in that of GGAACAAGGUAAAAUACAUTT against Nthl1, inactive: -0.986; in that of GGCUUACCUGAUGGUUGAUTT against Asb14, inactive: -0.814.
For “GGAUGUACUUAACUGUAAGTT against 3110001D03Rik” the value was inactive: -0.127; for GCUGAUGGUAAAUUCACAGTT against LOC381286, inactive: 1.15.
In the case of CCAUUCAUUUUAUCACUUCTT against Il1rn it was inactive: -0.013.
For the sequence “GGUUUCUGGAGCGGCCAAATT against 2410004L22Rik”, the z-score is inactive: 0.365.
For “GGACAUUUAAAAUCACUUGTT against 9030611O19Rik” the value was inactive: -0.257.
Regarding GGGCAAAAUCGUGUCAAGCTT against Dpp9, the z-score is inactive: 0.588.
Consider GGAAAUGAUGAGCAAGUUATT against Wdr22, for which the z-score is inactive: -0.729.
In the case of GGACACUGUGUAUUUUGUATT against Col11a2 it was inactive: -1.3; in that of GGUUUUCUACAGUUAUUGUTT against Ablim2, inactive: -0.223; in that of “GGCAUGUUGGAGGUAAUAATT against 1600031M04Rik”, inactive: -1.
In the case of “GGGUGAAAUUCUGUUGAAGTT against D230002A01Rik” it was inactive: 0.27; in that of GGAGUAUGGGACCAGAAUATT against Tarbp2, inactive: -1.53; in that of GGUGAACGGUGAGAAUGUGTT against Slc9a3r1, inactive: -2.25.
In the case of CCGGUACCUUGCUAUGAAGTT against Fgf2, the z-score is inactive: 0.203.
With CCAUAGGUAUGUUAAUCGATT against Rpo1-2, the z-score is inactive: -0.819.
Turning to GGAGUUCUACAAUCAAACATT against Slc2a1, the z-score is inactive: 0.715.
Regarding CGCAUUUUCUCUCGAGCUUTT against Slc25a30, the z-score is inactive: 0.744.
In the case of GGAUGUCUGUCUCAAUUCUTT against Olfr1012 it was inactive: -0.948; in that of GCAUAAAGAGGCCAUACCCTT against BC065120, inactive: -0.357; in that of GCAUGCAAAUCUCCUCUAATT against Sema3b, inactive: -0.0836.
For the sequence GCAAUUUGUAUGACGGUCUTT against Olfr1240, the z-score is inactive: 0.658.
In the case of GCAGAGCUUACCACAGACUTT against Inppl1 it was inactive: 1.56.
For GCGUGAACGGAUAAAAAAUTT against Figla the value was inactive: 0.0291; for GGCUCUAGAAGCGAGAAUCTT against Six6, inactive: 0.355; for GGGCAUUCAUGAAGGUAUUTT against Olfr165, inactive: -0.576.
For GCCAGAUAUCUCACAGACATT against Ppil2 the value was inactive: -1.93; for GAGCAAGAUCCAGCCCUAUTT against Dub2, inactive: -0.66.
Turning to GGACCCUGAACUACAACCUTT against Olfr860, the z-score is inactive: 0.738.
GGAGUCUCCCAAAUGAAGATT against Son: the z-score was inactive: -2.45.
On to GUCACAGAAAGCUUAGUCCTT against Olfr427, for which the z-score was inactive: -0.599.
Take GGUAAUGCCACAUUGAUGGTT against Upk2: the z-score is inactive: -0.554.
For CGCCUAGUUAAGGAAGACATT against Mcam the value was inactive: 0.22; for GGAUAUGAAGCCUUCAUGGTT against Slc5a1, inactive: -1.05.
In the case of GAAAAUGGUAAUCUAGGCATT against Siah1b it was inactive: 1.04.
In the case of GCAGCAUUGACUGAAGAUCTT against Sprrl10 it was inactive: -0.283.
Consider GGAUGACAUCUCUAUCUUUTT against Sca10, for which the z-score is inactive: 0.508.
GCCGGUUUCAGUUAAAGAGTT against Pccb: the z-score was inactive: 2.26.
For GCCUGGUGUAUGCUAAUGGTT against Crim2 the value was inactive: -1.06.
